Results are given in words; binding and its absence hold for the method and conditions named. In cells and extracts the contact can be indirect. Some entries that bind do so weakly or less than the wild type.

Sequences of proteins named here, by UniProt entry; tags and fusion partners are left off.
UniProt P35631: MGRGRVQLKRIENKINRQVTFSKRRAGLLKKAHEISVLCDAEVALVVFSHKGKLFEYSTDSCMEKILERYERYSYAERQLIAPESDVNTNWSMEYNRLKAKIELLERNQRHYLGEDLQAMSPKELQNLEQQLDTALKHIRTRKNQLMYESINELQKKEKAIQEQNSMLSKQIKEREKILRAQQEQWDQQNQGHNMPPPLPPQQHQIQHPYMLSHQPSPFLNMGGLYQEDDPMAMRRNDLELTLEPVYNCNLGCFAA
UniProt Q8W234: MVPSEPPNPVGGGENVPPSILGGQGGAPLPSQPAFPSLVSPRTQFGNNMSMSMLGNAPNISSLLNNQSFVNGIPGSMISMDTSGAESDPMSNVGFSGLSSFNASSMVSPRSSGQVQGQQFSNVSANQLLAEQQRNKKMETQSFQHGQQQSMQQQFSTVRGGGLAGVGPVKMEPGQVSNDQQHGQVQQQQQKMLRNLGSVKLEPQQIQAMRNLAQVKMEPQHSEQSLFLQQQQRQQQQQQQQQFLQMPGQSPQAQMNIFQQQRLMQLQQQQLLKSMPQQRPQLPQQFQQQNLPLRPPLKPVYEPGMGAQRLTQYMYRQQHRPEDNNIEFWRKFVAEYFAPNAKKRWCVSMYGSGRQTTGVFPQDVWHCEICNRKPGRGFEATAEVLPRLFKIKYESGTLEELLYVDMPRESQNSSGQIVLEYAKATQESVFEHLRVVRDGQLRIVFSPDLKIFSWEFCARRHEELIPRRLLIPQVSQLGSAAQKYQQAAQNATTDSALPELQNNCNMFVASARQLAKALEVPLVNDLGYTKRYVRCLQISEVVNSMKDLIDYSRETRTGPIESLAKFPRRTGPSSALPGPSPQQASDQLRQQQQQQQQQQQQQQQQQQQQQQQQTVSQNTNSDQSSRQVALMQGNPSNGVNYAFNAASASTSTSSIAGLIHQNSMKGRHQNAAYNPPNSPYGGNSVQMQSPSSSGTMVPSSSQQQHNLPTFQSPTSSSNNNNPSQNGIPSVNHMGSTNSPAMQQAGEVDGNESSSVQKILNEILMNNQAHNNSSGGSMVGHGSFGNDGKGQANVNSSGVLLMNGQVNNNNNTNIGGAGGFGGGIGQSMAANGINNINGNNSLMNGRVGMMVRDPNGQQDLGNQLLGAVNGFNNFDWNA

The text below walks through data of article PMC12643531.

The target of experiment [1] is APETALA1 (AP1), in vitro translated (Arabidopsis thaliana) (UniProt P35631). Briefly: co-IP; in vitro: proteins co-synthesized in one tube in wheat germ extract with biotinylated lysine; AP1 or SEP3 as bait precipitated with AP1 or SEP3 antibodies, Protein A MicroBeads, 4°C; Western blot with Streptavidin-Alkaline Phosphatase. For orientation: In western blotting, separated proteins are transferred to a membrane and probed.

Experiment [2] deals with …3 (SEP3), in vitro translated (Arabidopsis thaliana) (UniProt O22456). The experiment is described as above.

For “full-length SEU protein, in vitro translated (from UniProt Q8W234 1-877)”, the binding result in experiment [1] and in experiment [2] was “binds” each time.
